Test results: paper PMC9299520 (Nature structural & molecular biology, 2022)

Chains of the proteins cited; added tags and fusions are not shown.
UniProt P47898, whole entry: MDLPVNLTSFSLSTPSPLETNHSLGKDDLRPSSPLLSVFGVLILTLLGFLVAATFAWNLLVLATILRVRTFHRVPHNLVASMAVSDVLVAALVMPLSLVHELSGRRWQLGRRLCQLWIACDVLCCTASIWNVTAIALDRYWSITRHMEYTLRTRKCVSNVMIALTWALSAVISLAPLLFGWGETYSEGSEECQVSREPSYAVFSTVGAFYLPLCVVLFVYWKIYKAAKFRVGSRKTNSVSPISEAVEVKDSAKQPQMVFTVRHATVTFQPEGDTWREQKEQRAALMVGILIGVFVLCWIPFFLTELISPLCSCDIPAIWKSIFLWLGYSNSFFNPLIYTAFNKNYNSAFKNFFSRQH

Biological target: 5-HT5AR (Homo sapiens, UniProt P47898)
Test: BRET2 Gi1-activation assay, WT 5-HT5AR
Type: cell-based
Conditions: normalized to % of 5-HT

SMILES: CCN(CC)C(=O)N[C@H]1C=C2c3cccc4[nH]cc(c34)C[C@H]2N(C)C1 [lisuride]
- agonist type for Gi signaling: partial agonist
